Assay results: PubChem BioAssay AID540275 (National Center for Advancing Translational Sciences (NCATS), 2011)
The whole screen tested about 320,000 compounds, of which about 620 (0.19%) were called active. The inconclusive results got no clear call from the source; some entries with a clear call stand among them for comparison. Cut-off read from the data, not from the text of the source: active = activation above about 80%; inconclusive = between about 30% and that limit; inactive = weaker than that.

Protein sequences, listed by entry. Tags and fused reporters are not part of them.
UniProt Q8NER1, whole entry, looked up: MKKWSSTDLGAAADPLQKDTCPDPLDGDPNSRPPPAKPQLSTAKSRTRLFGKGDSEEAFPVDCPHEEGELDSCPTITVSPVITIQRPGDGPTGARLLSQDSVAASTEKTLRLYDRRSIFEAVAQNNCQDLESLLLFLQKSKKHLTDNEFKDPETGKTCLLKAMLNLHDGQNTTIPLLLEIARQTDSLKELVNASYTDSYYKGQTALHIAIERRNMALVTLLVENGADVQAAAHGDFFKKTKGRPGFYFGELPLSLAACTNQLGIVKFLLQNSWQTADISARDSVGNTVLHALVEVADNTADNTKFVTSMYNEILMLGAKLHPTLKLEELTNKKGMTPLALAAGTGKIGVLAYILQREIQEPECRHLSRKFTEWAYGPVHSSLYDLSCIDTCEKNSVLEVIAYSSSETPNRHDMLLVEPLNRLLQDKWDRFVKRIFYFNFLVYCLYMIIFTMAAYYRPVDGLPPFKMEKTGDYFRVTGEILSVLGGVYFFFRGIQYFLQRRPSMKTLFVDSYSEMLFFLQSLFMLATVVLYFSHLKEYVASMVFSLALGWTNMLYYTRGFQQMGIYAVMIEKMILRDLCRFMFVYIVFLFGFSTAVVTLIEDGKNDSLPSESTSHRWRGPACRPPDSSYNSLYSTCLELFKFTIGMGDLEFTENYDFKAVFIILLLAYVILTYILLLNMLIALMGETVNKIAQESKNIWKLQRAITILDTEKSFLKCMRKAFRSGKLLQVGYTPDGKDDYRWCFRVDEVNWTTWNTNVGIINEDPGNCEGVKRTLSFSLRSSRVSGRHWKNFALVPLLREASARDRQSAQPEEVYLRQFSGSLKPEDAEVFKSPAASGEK

Target: Transient receptor potential cation channel subfamily V member 1 (Homo sapiens) (UniProt Q8NER1)
Experiment: HTS Assay for Compounds that Act as Agonists of the Vanilloid Receptor 1; note: 0% is about no effect
Conditions: TRPV1-expressing cells, Fluo-8 calcium influx, agonist mode; at 8.33 µM, stronger effect = higher value
Summary of the method: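 Fluo-8 calcium influx in TRPV1-expressing cells, kinetic read (ex 480/em 520 nm). Compound added and read 3 min for agonist activity, followed by capsaicin at EC20 final and 2 min further read for enhancement.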

| SMILES | activation |
| --- | --- |
| O=C(COC(=O)c1ccc2ncsc2c1)NCc1ccc(F)cc1 | inconclusive: 49.4% |
| N#Cc1c(NC(=O)c2ccccc2)sc2c1CCCCC2 | inconclusive: 74.1% |
| O=c1c(-c2n[nH]c(=S)n2-c2ccccc2)cccn1Cc1cccc(Cl)c1 | inactive: 2.81% |
| CCN(CC)Cc1nc2c(c(=O)[nH]1)C1(CCCC1)Cc1ccccc1-2 | inconclusive: 36% |
| O=C(CSC1CCCCC1)N1CCN(c2ccccc2)CC1 | inconclusive: 47.7% |
| CCN(c1ccccc1)S(=O)(=O)c1ccc(OC)c(NC(=O)COc2ccc(C(C)=O)cc2)c1 | inactive: 0.551% |
| CCOc1nc(-c2ccccc2)ccc1-c1noc(COC)n1 | inconclusive: 64.3% |
| CCC1Nc2ncnc(N3CCN(c4ccccc4)CC3)c2N(Cc2ccc(Br)cc2)C1=O (centres undefined) | inconclusive: 31% |
| COc1ccccc1OCC(=O)N1CCCC(Nc2ccc(F)c(F)c2)C1 (centres undefined) | inconclusive: 65.1% |
| CCOC(=O)[C@H]1[C@H]2COc3ccc(Cl)cc3[C@@H]2N2C(=O)c3cc(Cl)ccc3NC(=O)[C@@]12C | inconclusive: 69.4% |
| Cc1ccc(-c2csc(NC(=O)c3ccc(C)o3)n2)cc1 | inconclusive: 42.4% |
| CC(=O)c1cccc(NC(=O)NC2CCCc3ccccc32)c1 (centres undefined) | active: 82.6% |
| O=S(=O)(Cc1cc(-c2ccc(Cl)cc2)no1)c1ccccc1 | inactive: -1.76% |
| Cn1nnnc1SCCNCc1ccc(Cl)cc1 | inactive: -6.36% |
| CCCCNC(=O)CSc1nnc(Cc2ccc(Cl)c(Cl)c2)c(=O)[nH]1 | inactive: 2.48% |
| Cn1c(/C=C/c2ccccc2)nc2ccccc21 | inactive: 24.1% |
| O=C(Nc1ncccc1O)c1ccc2c(c1)OCCO2 | inactive: 8.17% |
| COc1ccc(C[C@@H]2CN3C(=NC[C@@H]3C)N2C[C@H](C)NC(=O)CCC2CCCCC2)cc1 | inactive: 1.14% |
| O=C(Nc1ccc(CN2CCOCC2)cc1)c1cc2ccccc2o1 | inconclusive: 67.2% |
| CCOc1cc(C)nc(NCCc2ccc(OC)c(OC)c2)n1 | inconclusive: 36.9% |

| SMILES | activation |
| --- | --- |
| C=CCC(C(=O)NC(C)c1ccccc1)C(=O)NC(C)c1ccccc1 (centres undefined) | inactive: -2.64% |
| CCOc1ccc(-c2nc(-c3cccnc3)no2)cc1 | inactive: 2.35% |
| O=C(CC1CCCC1)Nc1ccc(Br)cc1 | inconclusive: 39.4% |
| Cc1ccc(C(=O)N/N=C/c2ccc3c(c2)OCO3)o1 | inconclusive: 34.1% |
| CCCC(C(=O)NC(C)(C)C)N(Cc1ccccc1Cl)C(=O)c1snc(C(N)=O)c1N (centres undefined) | inconclusive: 37.9% |
| COC(=O)C1=CN(c2cccc(C)c2)C=C(C(=O)OC)C1c1cc(OC)c(O)c([N+](=O)[O-])c1 | inconclusive: 62.3% |
| Cc1ccc(CNC(=O)CSCc2ccc(F)cc2)cc1 | active: 80.6% |
| COC(=O)[C@H](Cc1ccccc1)NC(=O)N1CCCCCC1 | inactive: -1.5% |
| Cc1ccc(-c2nc3ncccc3o2)cc1NC(=O)C(C)(C)C | inactive: -0.983% |
| O=C(/C=C/c1ccc(Br)cc1)c1ccco1 | inconclusive: 49.6% |
| COc1ccccc1NC(=O)c1cccc(S(=O)(=O)N2CCN(Cc3ccccc3)CC2)c1 | inconclusive: 32.2% |
| CCOC(=O)c1cc(C#N)c(N2CCN(c3ccccn3)CC2)nc1-c1ccccc1 | inactive: 4.63% |
| S=C(NCCc1ccc(Cl)cc1)NC1CCCCC1 | inconclusive: 56.2% |
| CS(=O)(=O)Nc1ccc(C2=NN(C(=O)c3ccco3)C(c3ccccc3F)C2)cc1 (centres undefined) | inconclusive: 38.4% |
| CCCn1c(C(C)Nc2nc(-c3ccc(C)cc3)cs2)nc2cc(Cl)c(Cl)cc21 (centres undefined) | inactive: 3.42% |
| COc1cc(/C=C2/C(=O)ON=C2C)cc(Cl)c1O | inactive: 0.375% |
| COc1ccccc1N1CCN(CCC(=O)Nc2cccc(Cl)c2)CC1 | inconclusive: 35.7% |
| CC(C)C(=O)N1CCC2(CC1)Oc1ccc(F)cc1C(=O)C21CC(c2cccnc2)=NO1 (centres undefined) | inactive: 3.24% |
| CC(C)(C)c1ccc2c(c1)OC(C(=O)N/N=C\c1ccncc1)CO2 (centres undefined) | active: 109% |
| CNC(=S)NCCC(c1ccccc1)c1ccccc1 | inconclusive: 58.5% |

| SMILES | activation |
| --- | --- |
| CC1=Nc2ccc3ccccc3c2C1(C)C | inactive: 2.95% |
| CCCNC(=O)C(Cc1ccc(I)cc1)NC(=O)C1CC1 (centres undefined) | inconclusive: 35.3% |
| CN(Cc1ccc(Cl)c(Cl)c1)C(=O)c1ccccc1SCC(=O)N1CCCC1 | inconclusive: 37.5% |
| Cc1c(Cl)c([N+](=O)[O-])nn1CCCC(=O)Nc1cccc(Cl)c1Cl | inactive: 8.91% |
| Cc1ccc(-c2cc(C(F)F)n3ncc(C(=O)N4CCCc5ccccc54)c3n2)cc1 | inconclusive: 50.5% |
| CCCCC[C@H]1CN(C2CCCCC2)C(=O)[C@@H]1CC(=O)NCc1ccc(OC)cc1 | inconclusive: 37.4% |
| Cc1ccc(NC(=O)c2cc3ccccc3oc2=N)cc1 | inactive: 18.1% |
| COc1cc(CCC(O)CC(=O)CCc2ccccc2)ccc1O (centres undefined) | active: 84.2% |
| COc1cccc(-c2cc(C(=O)NCC3CCCO3)c3cc(Br)cc(C)c3n2)c1 (centres undefined) | inconclusive: 45.8% |
| CN(CC(=O)NC(=O)NCc1ccccc1)Cc1ccc(Cl)cc1 | inconclusive: 43.5% |
| CCOC(=O)c1ccc(NC(=S)NC(=O)c2cncc(Br)c2)cc1 | inactive: -2.51% |
| Cc1oc(C(=O)Nc2ccc(O)cc2)cc1COc1ccccc1 | inconclusive: 37.2% |
| C/C(=N\Nc1ccccn1)c1ccc2c(c1)OCO2 | inconclusive: 41.1% |
| CCCn1c(N)c(C(=O)CSc2ncn[nH]2)c(=O)n(C)c1=O | inactive: -1.89% |
| COc1ccc(Cc2noc(CN(C)CC(O)c3ccccc3)n2)cc1OC (centres undefined) | inconclusive: 34.6% |
| O=C(COc1ccccc1Cc1ccccc1)Nc1cccnc1 | inconclusive: 42% |
| CCOc1ccc(C2NC(=O)C(C#N)=C(S)N2c2ccc(C)cc2)cc1OC (centres undefined) | inactive: -1.57% |
| CCC(CC)C(=O)c1c[nH]c(C(=O)N2CCN(c3ccccc3)CC2)c1 | inconclusive: 55.9% |
| COc1cc2c(cc1NC(=O)/C=C/c1cc(OC)c(OC)c(OC)c1)oc1ccccc12 | inactive: 2.67% |
